Measured values: PubChem BioAssay AID2685 (National Center for Advancing Translational Sciences (NCATS), 2010)
The list shows a part of the results. These are further read-outs of the screen, such as a control signal, another cell line or another target. No call is given for them. Most of these compounds were active or inconclusive in the main read-out, so they are no random draw. Potencies come from curve fits of mixed quality, noted in brackets.

Assay: qHTS Assay for Lipid Storage Modulators in Drosophila S3 Cells;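 as to cell number change: cells counted by Cell Tracker Red CMTPX staining in the red channel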
Details: BODIPY lipid droplet fluorescence, 18-24 h; for cell number change: measured here: cell count max response, cells fed with added oleic acid
Outline: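 Drosophila S3 cells loaded with oleic acid (400 uM, as added) and compounds at several concentrations; lipid droplets imaged by 488-nm laser-scanning cytometry, 500–530 nm intensity and object ratio to cell channel. Percent activity normalized to 20 uM Triacsin C.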

[1] = measured here: lipid fluorescence (Fed channel) AC50, cells fed with added oleic acid
[2] = measured here: cell number channel AC50, cells fed with added oleic acid

Row | SMILES | cell number change [%] | AC50 [1] | AC50 [2]
1 | CCOC(=O)CNC(c1ccccc1)c1cc(Br)ccc1NC(=O)CCN1CCOCC1 (stereo not given) | 6.43 | 1.03 µM [falling, single point] | –
2 | COc1ccccc1CCNC(=O)CN1C(=O)c2ccccc2S1(=O)=O | 34.9 | – | 23.1 µM [rising, partial curve, poor fit]
3 | COc1ccc(/C(C)=N/Nc2nccnc2Cl)cc1 | -19.8 | 0.0058 µM [falling, full curve, poor fit] | –
4 | Cc1ccccc1S(=O)(=O)Cc1ccc(C(=O)NCCCN(C)Cc2ccccc2)o1 | 6.11 | 2.06 µM [rising, partial curve] | –
5 | COc1ccc(C2=CC(=O)N(Nc3ccccc3)C2=O)cc1 | -60.1 | – | 2.59 µM [rising, single point]
6 | COc1cccc(-n2c(=O)c3sccc3n(CC(=O)NCC3CCCO3)c2=O)c1 (stereo not given) | 25.2 | 6.51 µM [falling, single point] | –
7 | COc1cc([N+](=O)[O-])ccc1NC(=O)/C=C\C(=O)O | -49.5 | – | –
8 | COc1ccc(Nc2nc(NCc3ccco3)nc(N/N=C/c3ccc(O)cc3)n2)cc1 | -40.6 | – | 32.6 µM [falling, single point]
9 | O=C(NCCCN1CCOCC1)C(=O)NCc1ccccc1 | -7.04 | 0.146 µM [falling, full curve, poor fit] | –
10 | O=C(O)c1ccc(N2C(=O)CCCC2=O)cc1 | -19.9 | 0.0082 µM [falling, full curve, poor fit] | –
11 | C=CCNc1scc(-c2ccccc2)[n+]1CC=C | -49.3 | 29.1 µM [falling, single point] | 1.16 µM [falling, full curve]
12 | N=C1/C(=C/c2ccc(OCc3ccccc3)cc2)C(=O)N=C2SC(CC(=O)N3CCOCC3)=NN12 | 18 | 0.411 µM [rising, partial curve, poor fit] | 0.411 µM [rising, full curve, poor fit]
13 | [O-]/[N+](=C/c1cccnc1)c1ccc(Br)cc1 | -0.992 | 0.103 µM [falling, full curve, poor fit] | –
14 | O=C(N=Nc1c(O)[nH]c2ccc(F)cc12)c1ccc(NS(=O)(=O)c2cccs2)cc1 | 21.7 | 7.31 µM [rising, partial curve] | –
15 | O=C(COc1ccc([N+](=O)[O-])cc1)Nc1cccnc1 | -0.623 | 8.2 µM [rising, partial curve] | –
16 | CCn1c(SCC(=O)Nc2cc(OC)c(OC)c(OC)c2)nnc1-c1cccs1 | 11.9 | 3.66 µM [falling, full curve, poor fit] | 0.651 µM [rising, full curve]
17 | N#Cc1cc2ccc(N3CCOCC3)cc2cc1C#N | -35.4 | – | 9.2 µM [falling, partial curve, poor fit]
18 | O=C(NCCN1CCOCC1)c1ccccc1[N+](=O)[O-] | -24.6 | 1.64 µM [rising, partial curve] | –
19 | Cc1nonc1NC(=O)CSc1ccccn1 | – | 6.51 µM [falling, single point] | 0.082 µM [falling, full curve, poor fit]

Row | SMILES | cell number change [%] | AC50 [1] | AC50 [2]
20 | C=CCn1c(SCC(=O)Nc2c(C)n(C)n(-c3ccccc3)c2=O)nc2scc(-c3ccccc3)c2c1=O | 82.5 | 4.61 µM [rising, partial curve, poor fit] | 0.517 µM [rising, partial curve]
21 | COc1ccccc1-c1sc2cc3c(cc2c1C#CCO)OCO3 | -14.8 | 0.00517 µM [falling, full curve, poor fit] | –
22 | COc1ccc(NC(=O)CSc2nnc(C3CCCCC3)n2N)c(OC)c1 | 5.07 | 2.31 µM [rising, partial curve, poor fit] | –
23 | O=C(CN1C(=O)C2CC=CCC2C1=O)Nc1ccc(OC(F)(F)F)cc1 (stereo not given) | -11.4 | – | –
24 | CNC(=S)Nc1ccc([N+](=O)[O-])cc1C | -12.3 | – | –
25 | CCN(CC)C(=O)CSc1nc(N)c2c3c(sc2n1)CC(C)CC3 (stereo not given) | – | 4.61 µM [rising, single point] | –
26 | CCOC(=O)c1c(C)[nH]c(C(=O)N/N=C\c2ccccc2Cl)c1C | – | 0.146 µM [rising, full curve, poor fit] | –
27 | Cc1cc(NS(=O)(=O)c2ccc(NC(=O)c3c(F)c(F)c(F)c(F)c3F)cc2)nc(C)n1 | -25.6 | – | –
28 | Cc1nc(-c2ccccc2)sc1C(=O)CSc1ccc(Cl)cc1 | 55.6 | 6.51 µM [rising, partial curve] | 13 µM [rising, partial curve]
29 | CCn1ccnc1CNC(=O)c1ccc2oc(CCCc3ccccc3)nc2c1 | -1.05 | 6.51 µM [rising, single point] | –
30 | Oc1ccc(NCc2cccc(OCc3ccccc3)c2)cc1 | -30.6 | 29.1 µM [falling, single point] | 32.6 µM [falling, single point]
31 | CCC(=O)c1ccc(OCC(=O)N2CCN(c3ccccn3)CC2)cc1 | 26.5 | 18.4 µM [rising, partial curve, poor fit] | –
32 | Cc1ccc(S(=O)(=O)N2[C@@H](c3ccc(Cl)cc3)C(C(=O)O)=CC[C@H]2c2cccc(Cl)c2)cc1 | 24.6 | 23.1 µM [rising, single point] | –
33 | Cn1cc([N+](=O)[O-])c(C(=O)Nc2ccc3nc(-c4ccccc4)[nH]c3c2)n1 | -17.3 | 0.461 µM [rising, full curve] | 4.61 µM [rising, partial curve]
34 | CSc1ccc(C2=CC(=O)C[C@H](c3ccc(Cl)cc3)C2)cc1 | -3.49 | 29.1 µM [rising, single point] | –
35 | OC1CN=C2C=CC=CN2C1 (stereo not given) | 3.76 | – | –
36 | COCCn1c(SCC(=O)Nc2ccc(OC)cc2OC)nc2ccccc2c1=O | 3.04 | 20.6 µM [falling, partial curve] | –
37 | CN(Cc1cccs1)C(=O)CCc1c[nH]c2ccccc12 | 12.6 | – | –
38 | NS(=O)(=O)c1ccc(CCNS(=O)(=O)c2ccc(Cl)cc2)cc1 | 20.7 | 0.58 µM [rising, single point] | –

Row | SMILES | cell number change [%] | AC50 [1] | AC50 [2]
39 | CCn1c2ccccc2c2cc(CN3CCN(C(=O)c4ccco4)CC3)ccc21 | -15.3 | 0.13 µM [falling, full curve, poor fit] | 0.116 µM [falling, full curve, poor fit]
40 | CC(C)CCN1CC(=O)N2[C@@H](Cc3c([nH]c4ccccc34)C2(C)C)C1=O | 34.8 | 29.1 µM [rising, single point] | 18.4 µM [rising, single point]
41 | CC(=O)NC1=NN(C(C)=O)C(C)(c2ccc3ccccc3c2)S1 (stereo not given) | -33 | 0.291 µM [falling, full curve, poor fit] | 0.116 µM [falling, full curve, poor fit]
42 | Cc1ccc(C2(C)NC(=O)N(CC(=O)NC(=O)NCCC(C)C)C2=O)cc1 (stereo not given) | – | 1.46 µM [falling, full curve] | –
43 | COc1ccc(-c2cc(-c3ccccc3)no2)cc1 | 17 | 14.6 µM [rising, single point] | –
44 | O=C(CNC(=S)NC(=O)c1cccc([N+](=O)[O-])c1)c1ccccc1 | -41.8 | – | 1.16 µM [falling, full curve]
45 | CCc1nn(CC(=O)NCCCN2CCCC2=O)c(=O)c2cc3sccc3n12 | 30.1 | 29.1 µM [rising, single point] | 18.4 µM [rising, single point]
46 | Cc1ccc(C2C(C(=O)O)c3ccccc3C(=O)N2C)c(C)c1 (stereo not given) | -30.8 | 6.51 µM [rising, single point] | 18.4 µM [falling, single point]
47 | Nc1nc2c(-c3ccc(Br)cc3)nnn2c2ccccc12 | -27.7 | 29.1 µM [falling, single point] | –
48 | Cc1ccc(S(=O)(=O)Cc2ccc(C(=O)NCCCN3CCCC3=O)o2)cc1 | 8.67 | 2.06 µM [rising, partial curve] | –
49 | C=CCN1C(=O)/C(=C2/Sc3ccc(OC)cc3N2C)SC1=Nc1cccc(O)c1 | -29.1 | 25.9 µM [falling, single point] | –
50 | CCOc1ccc(NC(=O)CNC(=O)c2cn(-c3ccccc3OC)c(=O)c3ccccc23)cc1 | – | 2.31 µM [rising, partial curve] | 2.59 µM [rising, partial curve]
51 | O=C(O)C(Cc1ccccc1)N1C(=O)c2cccc3cccc(c23)C1=O (stereo not given) | -8.7 | – | 7.31 µM [falling, partial curve]
52 | O=C(Nc1c(F)cccc1F)c1cnc(N2CCN(c3ccccn3)CC2)c2ccccc12 | 16 | – | 0.82 µM [rising, full curve, poor fit]
53 | COC(=O)c1ccccc1NC(=O)NN1CCN(C)CC1 | 2.7 | 1.3 µM [rising, full curve] | –
54 | C/C(=N\NC(=S)NCC(C)(C)C)c1cc(F)cc(F)c1O | -45 | – | 29.1 µM [falling, single point]
55 | CCOC(=O)c1cnc(SC)nc1Oc1cccc(NC(=O)c2ccc(C)cc2)c1 | – | 6.51 µM [rising, partial curve, poor fit] | –
56 | CCOc1ccc(S(=O)(=O)N2CCOCC2)cc1NS(=O)(=O)c1ccc(OC)c([N+](=O)[O-])c1 | 64 | 0.291 µM [rising, partial curve, poor fit] | 29.1 µM [rising, single point]

Filtered by structure: the entries above containing bromine (3)
Row | SMILES | cell number change [%] | AC50 [1] | AC50 [2]
1 | CCOC(=O)CNC(c1ccccc1)c1cc(Br)ccc1NC(=O)CCN1CCOCC1 (stereo not given) | 6.43 | 1.03 µM [falling, single point] | –
13 | [O-]/[N+](=C/c1cccnc1)c1ccc(Br)cc1 | -0.992 | 0.103 µM [falling, full curve, poor fit] | –
47 | Nc1nc2c(-c3ccc(Br)cc3)nnn2c2ccccc12 | -27.7 | 29.1 µM [falling, single point] | –
